At least one compound was matched to its structure with a doubt left.
Experiments:
[1] = tested on: telomerase (total cell lysates of lung cancer cell line H1299); assay: Telomeric Repeat Amplification Protocol (TRAP) assay, screen of telomerase inhibitors; format: biochemical, human; conditions: 10 μM
Protocol: Telomeric Repeat Amplification Protocol (TRAP) Assay:
Telomerase activity was detected by a modified version of the general TRAP protocol. Telomerase products were resolved by 10% polyacrylamide gel electrophoresis and visualized by staining with SYBER Green. As a source of telomerase, the total cell lysates derived from lung cancer cell line H1299 cells were used. Protein concentration of the lysates was assayed using Bio-Rad protein assay kit using BSA standards.
In the TRAP assay, if a compound can stabilize the G-quadruplex structure such that telomerase can not act on telomere, then the effect of inhibiting the telomerase can be achieved. In the FIG. 2A to FIG. 2C, DMSO treatment represents as the positive control group (P); while a negative control group (N) used 5 μl of 0.1 mg/ml RNase A (CLONTECH) in the assay. It could be observed that a number of telomeric fragments were detected in the positive control group (P), while none was detected in the negative control group (N). 10 μM was selected as the concentration used to screen compounds.

[2] = tested on: SVG p12, GBM8401 and GBM8901; assay: MTT assay, normal cell versus tumor cells (categories 39-3 to 39-7); conditions: tumor cell survival rate less than 80%; FIG. 5A

## COC(=O)CCCSc1nc2ccc3c(c2[nH]1)C(=O)c1ccccc1C3=O [f1-5, Methyl-(6,11-dioxo-6,11-dihydro-1H-anthra[1,2-d]imidazol-2-ylthio)butanoate]
[1]
  inhibition effect against telomerase: exhibited inhibition effect against telomerase
[2]
  category 39-3: survival rate higher than 80% for normal cell SVG p12 and inhibits growth of both tumor cells GBM8401 and GBM8901: in this category

Source: patent publication US8067454B2, “Thio-substituted Anthra [1, 2-d] imidazole- 6, 11-dione derivatives, preparation method and application thereof” (National Defense Medical Center, priority 2010, dated 2011)
